Primary screen of a compound library

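Viability assay of Plasmodium falciparum sporozoites; the read-out is not stated. The concentration is filed as 10 mM, unlikely as a test dose, so the dose is not known. Higher reads as lower viability (inferred: compounds with an IC50 in retests scored well above the rest). Strong results were mostly tested again. Size under these conditions: about 34,000 compounds, about 280 of them at 50% or above in at least one test.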

Results are given as percent effect. How 0% and 100% were set is not recorded. Most values in the screen are low, and negative values occur. Compounds were drawn at random from those tested, without regard to their results. Two or more numbers in one place are separate tests of the same structure; such repeats can differ widely.

Compound: CCN(c1ccccc1C(=O)O)S(=O)(=O)c1cccc2cccnc12
Percent Effect: -13.06%

Compound: COc1cc(N2CCC3(CC2)C(c2ccncc2)CC(=O)N3C)ncn1 (centres undefined)
Percent Effect: -0.2555%

Compound: CN1CCOC(c2cncc(CCC(=O)N(C)C)n2)C1 (centres undefined)
Percent Effect: 4.028%

Compound: Cc1ccc(CN2CCC3(CC2)CC(c2cccnc2)CO3)s1.O=C(O)C(F)(F)F.O=C(O)C(F)(F)F (centres undefined)
Percent Effect: -4.51%

Compound: CNc1nc(CNC(=O)Nc2cccc(OC)c2)cs1
Percent Effect: -7.954%

Compound: COc1cccc2cc(CNCc3ccnc(N(C)C)c3)oc12
Percent Effect: -3.888%

Compound: O=C(O)C1(Cc2cccc(-c3ccc(F)c(F)c3)c2)CCOCC1
Percent Effect: -10.07%

Compound: CC(=O)NC(C)C(=O)NCc1ccc(N2CCNC(=O)C2)cc1 (centres undefined)
Percent Effect: -5.205%

Compound: CC(C)c1nc(CC(=O)Nc2nc(CN3CCCCCC3)cs2)cs1
Percent Effect: 1.387%

Compound: Cc1nsc(C(=O)N2CCc3ccccc3C2)n1
Percent Effect: -4.358%

Compound: CN1CCOC(CNCc2coc(-c3cccs3)n2)C1 (centres undefined)
Percent Effect: 7.155%

Compound: Cc1ccc(C(C)N(C)Cc2nc3c(cnn3C)c(=O)[nH]2)c(C)c1 (centres undefined)
Percent Effect: 7.954%

Compound: Cl.[H][C@@]12CCCCN[C@]1([H])[C@@H](c1ccccc1)CCN2S(=O)(=O)N(CC)CC
Percent Effect: 14.26%

Compound: O=C(COCCOc1ccccc1)N1CCCC(n2ccnc2)C1 (centres undefined)
Percent Effect: -1.013%

Compound: CCN1CCn2nc(CCC(=O)N3CCCC3)cc2C1
Percent Effect: 2.183%

Compound: O=C1CN(C(=O)CSC2CCCc3ccccc32)CCN1 (centres undefined)
Percent Effect: 6.272%

Compound: FC(F)Sc1ccc(NCc2nnc(C3CC3)o2)cc1
Percent Effect: -3.908%

Compound: O=C(c1n[nH]c(=O)c2ccccc12)N1CCCCC1c1ccn[nH]1 (centres undefined)
Percent Effect: -20.97%

Compound: O=C(O)C(F)(F)F.[H][C@@]12CCN(C(=O)c3ccsc3)[C@]1([H])CCC(=O)N2Cc1cccc(C)n1
Percent Effect: -6.397%

Compound: Cc1nc(CN2CCCC(N(C)CC3(O)CCCCC3)C2)no1 (centres undefined)
Percent Effect: 15.27%

Compound: CCC(=O)N1CCCC1c1nccnc1Nc1ncccn1 (centres undefined)
Percent Effect: -31.16%

Compound: CC(=O)c1ccc(OCC(=O)NS(=O)(=O)c2cccnc2)cc1
Percent Effect: 2.481%

Compound: COc1ccc(C2CCCN2C(=O)NCCCn2ccnc2)cc1 (centres undefined)
Percent Effect: 3.614%

Compound: CC(C)c1nn2c(-c3cnn(C)c3)nnc2s1
Percent Effect: -5.586%

Compound: O=C(NCCN1CCOCC1)c1ccc(-n2ccc3ccccc32)s1
Percent Effect: -3.24%

Compound: O=C(C1CCOC1)N1CCC2(CC1)Cc1ccccc1CNC2=O (centres undefined)
Percent Effect: -0.5963%

Compound: Cc1cccc(N2CCc3ncc(CNS(C)(=O)=O)n3CC2)n1.O=C(O)C(F)(F)F
Percent Effect: -2.544%

Compound: Cc1nc(-c2ccsc2)ccc1C(=O)NCC(C)N1CCOCC1 (centres undefined)
Percent Effect: 6.058%

Compound: O=C(O)C(F)(F)F.[H][C@]12CCC[C@@]1(COc1cccnc1)CN(C(=O)C1CCOCC1)C2
Percent Effect: 7.791%

Compound: Cn1cccc1C(=O)NCc1cn2c(n1)CN(S(=O)(=O)C1CC1)CC2
Percent Effect: 5.816%

Compound: CC(=O)NCCc1nc(C(C)C)nn1-c1ccncc1C
Percent Effect: -8.734% and -7.397%

Compound: COC(=O)c1ccc(N2CCN(C(=O)c3cc(C)on3)C(C)C2)cc1 (centres undefined)
Percent Effect: -0.4112%

Compound: [H][C@@]12OCCN(Cc3ccoc3)[C@@]1([H])CC[C@H]2OCc1cccc(C)n1
Percent Effect: 8.833%

Compound: Fc1ccc([C@@H]2COC[C@H]2NCc2cccc(F)c2)cc1.O=C(O)CC(O)(CC(=O)O)C(=O)O
Percent Effect: 3.229%

Compound: COc1ccc(N(Cc2ccco2)C(=O)C2CCCO2)cc1F (centres undefined)
Percent Effect: -20.89%

Compound: Cc1cccc(C2(O)CCN(Cc3ccccc3N3CCCC3)CC2)c1
Percent Effect: 12.01%

Compound: Cc1cc(C)c(CNC(=O)N(C)Cc2sccc2C)c(=O)[nH]1
Percent Effect: 1.222%

Compound: O=C(O)C(F)(F)F.O=C(O)C(F)(F)F.[H][C@@]12CCN(Cc3ccccn3)C[C@]1(C(=O)N1CCCO1)CCO2
Percent Effect: 12.14% and -27.98% and -27.82%

Compound: Cn1nc(C2CNCCO2)cc1CCOc1ccc(C(F)(F)F)cc1 (centres undefined)
Percent Effect: 8.847%

Compound: CC(=O)N1CCC(c2ccnc(Nc3cncnc3)n2)C1 (centres undefined)
Percent Effect: -0.8074%

Compound: Cc1nccc(-c2cccc(NCC(=O)N3CCCCCCC3)c2)n1
Percent Effect: 8.883%

Compound: CCc1nc(CN2CCCN(C(=O)C(C)COC)CC2)cs1 (centres undefined)
Percent Effect: 6.378%

Compound: CCc1ccc(CNC(=O)N2CCN(Cc3cc(C)no3)CC2)s1
Percent Effect: 13.77%

Compound: Cc1oc(C(=O)O)cc1S(=O)(=O)Nc1cccc(Cl)c1F
Percent Effect: 1.301%

Compound: CCN1CCCC1CNCc1cc2ccccc2[nH]c1=O (centres undefined)
Percent Effect: 24.74%

Compound: O=C(N[C@@H]1CCN(c2nc3ccccc3o2)C[C@H]1O)c1cnccn1
Percent Effect: 2.756%

Compound: [H][C@]12CC[C@]([H])(CN(S(=O)(=O)c3cc(Cl)ccc3OC)C1)N(C)C2=O
Percent Effect: -9.282%

Compound: CN(C)C(=O)c1cccc(NC(=O)N(CCO)Cc2ccsc2)c1
Percent Effect: -9.406%

Compound: CC(C)c1cc2c(O)nc(CSCC(=O)NCc3ccncc3)nc2s1
Percent Effect: -20.58% and -8.909%

Compound: CCn1cnnc1C1CCN(C(=O)c2cnc3ccccc3n2)CC1
Percent Effect: -8.005%

Compound: CCc1noc(C)c1C(=O)NCC(c1ccc(C)cc1)N(C)C (centres undefined)
Percent Effect: 25.6% and 28.92% and 35.84%

Compound: CCc1noc(C(C)N2CCC(C(=O)Nc3cnn(CC)c3)CC2)n1 (centres undefined)
Percent Effect: -10.5%

Compound: O=C(O)C(F)(F)F.[H][C@@]12CCN(Cc3ccoc3)C[C@]1([H])OCCN(Cc1cccc(F)c1)C2=O
Percent Effect: 6.734%

Compound: COC(=O)c1sc2cccc(F)c2c1CNC(=O)C1CCOC1 (centres undefined)
Percent Effect: 0.1304%

Once more, the final 4:

- CCc1noc(C)c1C(=O)NCC(c1ccc(C)cc1)N(C)C (centres undefined) | 25.6% and 28.92% and 35.84%
- CCc1noc(C(C)N2CCC(C(=O)Nc3cnn(CC)c3)CC2)n1 (centres undefined) | -10.5%
- O=C(O)C(F)(F)F.[H][C@@]12CCN(Cc3ccoc3)C[C@]1([H])OCCN(Cc1cccc(F)c1)C2=O | 6.734%
- COC(=O)c1sc2cccc(F)c2c1CNC(=O)C1CCOC1 (centres undefined) | 0.1304%

From ChEMBL document CHEMBL3988442, “University of Dundee, Small-Polar-MMV Screening Library” (2021).